About 210 (0.4%) of roughly 52,000 sequences were called active.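 How the source made its calls: active means gene whose silencing raises cell survival under the drug, median off-target-corrected z-score across its silencing RNAs 2 or more; inactive means the rest.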 Some of the results follow.

This assay in a line: Resistance to Poly (ADP-Ribose) Polymerase inhibitor: Gene Identification via Genome-wide siRNA Screen. The conditions noted are these: mouse BRCA2 R2336H ES cells, olaparib, CellTiter-Glo viability; hits give high values. The essentials:
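Genome-wide siRNA screen (3 siRNAs/gene, 20 nM) in mouse ES cells carrying hypomorphic BRCA2 R2336H; olaparib 500 nM added 48 h post-transfection, CellTiter-Glo viability 72 h later. Normalized to plate-median negative control; MAD z-scores, gene median, seed-adjusted.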
Turning to GGAAUAAAGAAUGGUAUACTT against Suhw4, the z-score was inactive: 0.381.

Take CGGCAUCUGUAAGAACGUGTT against Adamts7: the z-score was inactive: 0.996.

As for GCCACGUAGACUGAUAUAGTT against Irf5, the z-score was inactive: -2.64.

Turning to “GGCAAAGGUGCAAGAUACATT against 9130012B15Rik”, the z-score is inactive: 0.304.

On to GGACUCCCUGAGAACCUGATT against Coil, for which the z-score is inactive: -1.31.

For the sequence “CGGCCUCAAUUUACAGCUATT against 9130210N20Rik”, the z-score was inactive: -1.16.

On to GGAAAGACUUGAUGGUCUGTT against Nap1l1, for which the z-score was inactive: -1.15.

Consider CGGUUCUUCCAUCAAAUGGTT against Prodh, for which the z-score is inactive: -0.0133.

As for GCAUCCCUUUGAUCGCUACTT against Serpina11, the z-score is inactive: 0.247.

On to GGUGGACUCCUUGACAGAUTT against AI507495, for which the z-score was inactive: -0.927.

On to CCGAAAGAAAUGGACCCGATT against Pou2f2, for which the z-score was inactive: -0.0968.

For GGUCUGCAUCGACUCUGAGTT against Atox1, the z-score was inactive: -1.1.

Take GCUAGACCUAAGGAGCAAATT against Axin1: the z-score was inactive: 0.057.

Regarding GGUUCUGAACCAGCUGGAGTT against Chd3, the z-score was inactive: 2.62.

For the sequence CGAAAUCUUUUCUAACCACTT against Drd4, the z-score was inactive: 0.928.

Turning to GCCAAGAGUCAACAUCACATT against Eng, the z-score is inactive: 0.131.

Consider GCUUUGGACAAUAAGAAGUTT against Cdkl1, for which the z-score was inactive: -0.441.

For CGAGACAAGGUAGAAAGUATT against Spire1, the z-score was inactive: -1.46.

Turning to CGCCAAACAGGCUAGAUCUTT against Ephb2, the z-score was inactive: 2.91.

Regarding GCAUACCAGUCUCAUCGCATT against Kpnb3, the z-score was inactive: -0.78.

Take GCCAUGUUCCUUUAUAACATT against Prps1: the z-score is inactive: 1.24.

For “GGAUGUGCUAUCGAAGACATT against RP23-219P13.3”, the z-score is inactive: 0.00481.

As for “CCAAGAAGAUCUGUACACGTT against 2610528J18Rik”, the z-score is inactive: 0.966.

In the case of “GGAGGAGUCUUGAAUCCAGTT against 9930028C20Rik”, the z-score is inactive: 1.77.

Turning to “GGAUUCAGGCAGAAGAAAGTT against 3110002L15Rik”, the z-score is inactive: -1.14.

With GGAUACGAUGGAAAUAAUGTT against Nek6, the z-score was inactive: -1.03.

For GGAAAAUGGAGCUGUGCUCTT against BC019561, the z-score was inactive: -1.61.

Take GGUCAUAGCACCAUGUUCUTT against Gata5: the z-score is inactive: 0.584.

Take GGAGAAACCUGACAUGUCUTT against AA407526: the z-score was inactive: -2.1.

Consider “GGGUUCAGGAGAACUAACUTT against 9030407H20Rik”, for which the z-score is inactive: -1.28.

Regarding GGUAAAAGUGGUUCUGUUCTT against Olfr1143, the z-score was inactive: 0.274.

For ACAGCUCUUCCAACCACCUTT against Rtn4rl2, the z-score is inactive: -0.536.

GGUGAAAUCCGUUACUUUGTT against Muted: the z-score is inactive: -0.538.

For the sequence GGGUUAGGUCAUCUAAAUGTT against Ankrd32, the z-score was inactive: -0.368.

On to GGAGGACAAAGAGGCACAGTT against Gip, for which the z-score was inactive: 0.802.

Take GCGGGAAUGAAGAAACACGTT against Eea1: the z-score was inactive: -0.557.

Regarding CCAGAUACUCAAUUCUUUGTT against Bcl3, the z-score was inactive: -0.698.

Take GGGAGUUACUAACCACUUCTT against Gja3: the z-score was inactive: -0.507.

With GCUGAACGACCAAGUGUAATT against Lrrc15, the z-score was inactive: -1.15.

For GGGCUUUGAUCAGUUCUACTT against Hoxd11, the z-score was inactive: -0.654.

“GGGAUGCUGUCUUCUGUCATT against G630042G04”: the z-score is inactive: -1.26.

In the case of GGUGGUAUUUGAAGAGACATT against Ddit4l, the z-score is inactive: 1.44.

For GCAAGUCGAUACUGGGUGATT against T2, the z-score was inactive: -0.681.

Regarding “GGCCUUCUCUGACUUUCUGTT against D430030K24Rik”, the z-score was active: 3.28.

GCCUUCUGUUGGUUAAUACTT against Dsipi: the z-score is inactive: -0.0459.

For the sequence “CCGCUCACGUGAAAAAGUUTT against 2610024N01Rik”, the z-score was inactive: -0.456.

Take GGAAAUCUAAAAGUCCUCCTT against Il17re: the z-score is inactive: -0.56.

As to “GGAUACAGAACACAGGAGCTT against A430090L17Rik”, the z-score is inactive: 3.75.

Turning to GGUCAAAGCAUCAAGGUGGTT against Oprl1, the z-score is inactive: -0.0981.

In the case of GGAACAUUACCAUCAAGCUTT against Eif2s3x, the z-score was inactive: -2.52.

Take GCAUGGAUAUCCUAUUGACTT against Fmo5: the z-score was inactive: 1.06.

For the sequence GGCAGAUUUAGACACCAUATT against Synpr, the z-score was inactive: 1.12.

Take GGGUCACCCAUUAUUUUAUTT against Phyhip: the z-score was inactive: 0.649.

On to GGAAAUCGUAUACAGGGACTT against Prkx, for which the z-score was inactive: 0.355.

Take “CCAAAUUAUUCUUGCUUUCTT against 1500003O03Rik”: the z-score is inactive: 0.953.

Take CCUGAGUAUGCCUAUUAUUTT against Snapc1: the z-score was inactive: -0.0116.

As to GGCAAUGGACGCAUCACCUTT against Fn1, the z-score is inactive: -0.759.

For the sequence GCCAAUAAGCGGAAAAGCATT against Zfp609, the z-score was inactive: -2.02.

Consider GCGCAGGUUCAAUGUGGAUTT against Prodh, for which the z-score was inactive: 0.399.

As to GGGUUAUAGCUAUAGGACUTT against Olfr65, the z-score is inactive: 0.257.

Turning to GCUUCCAAGACCCUAAAGCTT against Dub1a, the z-score was inactive: 0.847.

GCUGCUGUUUAAUUGCUGUTT against Olfr807: the z-score was inactive: -0.341.

Regarding GCGGCUAUCUGUAGUAGGUTT against Map3k2, the z-score is inactive: 0.0982.

As to GGCUCUGGCCAUAUUUUGGTT against Olfr549, the z-score was inactive: 1.17.

Turning to “GGAAUUUGGAGCAAUUGGATT against 4732418C07Rik”, the z-score was inactive: -0.35.

As for GCCCUUUCCGUCUGAAAUCTT against Hydin, the z-score is inactive: 0.887.

The values are drawn from PubChem BioAssay AID1347423 (Functional Genomics Laboratory (NCATS/FGL), 2020).
